This experiment deals with human Neurofascin (residues 25-1039 with a C-terminal 10xHis tag) (human) (UniProt O94856). The experiment in a line: ELISA, plates coated with human Neurofascin. For orientation: ELISA stands for enzyme-linked immunosorbent assay.

Sequences of proteins named here, by UniProt entry; tags and fusion partners are left off. A change or cut given only in a name is not applied to a line headed by its entry.
UniProt O94856: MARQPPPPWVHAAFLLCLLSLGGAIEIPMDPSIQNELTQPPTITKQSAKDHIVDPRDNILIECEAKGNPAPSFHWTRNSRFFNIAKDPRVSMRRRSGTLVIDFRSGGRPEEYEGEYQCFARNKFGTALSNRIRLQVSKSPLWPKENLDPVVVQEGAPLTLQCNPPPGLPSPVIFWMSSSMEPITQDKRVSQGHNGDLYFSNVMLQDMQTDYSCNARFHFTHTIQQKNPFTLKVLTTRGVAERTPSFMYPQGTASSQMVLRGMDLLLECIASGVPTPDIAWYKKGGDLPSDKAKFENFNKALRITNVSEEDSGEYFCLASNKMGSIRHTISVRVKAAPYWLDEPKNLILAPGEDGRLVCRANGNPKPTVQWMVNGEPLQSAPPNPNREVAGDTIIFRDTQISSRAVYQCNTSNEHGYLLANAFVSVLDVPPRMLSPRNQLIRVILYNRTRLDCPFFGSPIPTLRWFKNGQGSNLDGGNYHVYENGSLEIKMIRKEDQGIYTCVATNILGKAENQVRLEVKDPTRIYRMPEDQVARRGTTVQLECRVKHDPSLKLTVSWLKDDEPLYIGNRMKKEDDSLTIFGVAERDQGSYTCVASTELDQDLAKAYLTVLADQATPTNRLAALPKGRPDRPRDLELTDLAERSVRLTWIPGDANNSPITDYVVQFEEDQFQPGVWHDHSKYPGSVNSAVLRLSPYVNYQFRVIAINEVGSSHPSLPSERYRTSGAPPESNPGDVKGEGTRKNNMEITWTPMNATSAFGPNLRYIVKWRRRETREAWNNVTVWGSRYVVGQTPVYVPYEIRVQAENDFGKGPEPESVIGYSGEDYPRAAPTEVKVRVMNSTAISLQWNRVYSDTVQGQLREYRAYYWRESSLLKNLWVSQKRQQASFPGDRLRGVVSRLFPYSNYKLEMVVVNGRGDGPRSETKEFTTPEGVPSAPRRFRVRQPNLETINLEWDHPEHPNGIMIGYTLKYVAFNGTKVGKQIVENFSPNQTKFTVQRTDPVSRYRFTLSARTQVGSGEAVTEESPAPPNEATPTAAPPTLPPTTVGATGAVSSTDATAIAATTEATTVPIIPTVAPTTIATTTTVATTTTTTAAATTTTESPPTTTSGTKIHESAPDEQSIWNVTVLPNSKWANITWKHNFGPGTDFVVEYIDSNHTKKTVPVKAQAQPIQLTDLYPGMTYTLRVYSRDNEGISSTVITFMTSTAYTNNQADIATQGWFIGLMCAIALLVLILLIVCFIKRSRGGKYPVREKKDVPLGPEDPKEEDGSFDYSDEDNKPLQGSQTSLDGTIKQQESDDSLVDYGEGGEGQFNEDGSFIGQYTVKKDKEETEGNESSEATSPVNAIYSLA

These are yes or no findings as the source states them, for the method shown.

B1: TDI-Y-005 (antibody, human IgG1, kappa, V domains shown)
VH: EVQMVESGGGLVQPGGSLRLSCAAPGFIFSSYNMNWVRQAPGKGLEWVSYISSSSSTTYYADSVKGRFTISRDNAKNSLYLQMNSLRDEDTAVYYCASLYSGYDYYYYYGMDVWGQGTTVTVSS
VL: DIVMTQTPLSSPVSLGQPASISCRSSQSLVHSDGNTYLSWLQQRPGQPPRVLIYKISKRFSGVPDRFSGSGAGTDFTLKISRVEAEDVGVYYCMQATQFPFTFGPGTKVDIKR
In the case of B1, the binding entry is recorded as “no binding (tested: 1 µM)”.

B2: TDI-Y-004 (antibody, human IgG1, kappa, V domains shown)
VH: QVQLVQSGAEVKKPGSSVKVSCKASGYTFTNYYIHWVRQAPGQGLEWMGKIGPGSGSPYYQGMFKDRVTITADESTSTAYMELSSLRSEDTAVYYCARWLLPFDYWGQGTLVTVSS
VL: EIVLTQSPGTLSLSPGERATLSCRASSSVNYMHWYQQKPGQAPRLLIYATSILASGIPDRFSGSGSGTDYTLTISRLEPEDFAVYYCQQFSSDPLTFGGGTKVEIKR
As for B2, the binding result is on record as “no binding (tested: 1 µM)”.

(Values after patent US20250340636A1, “ANTIBODIES TARGETING L1CAM AND USES THEREOF” (MEMORIAL SLOAN-KETTERING CANCER CENTER, priority 2023, published 2025).)
